From ChEMBL document CHEMBL3988442, “University of Dundee, Small-Polar-MMV Screening Library” (2021).

Amino acid sequences for entries named in this document (tags omitted).
UniProt E9BF75, entry or part of it: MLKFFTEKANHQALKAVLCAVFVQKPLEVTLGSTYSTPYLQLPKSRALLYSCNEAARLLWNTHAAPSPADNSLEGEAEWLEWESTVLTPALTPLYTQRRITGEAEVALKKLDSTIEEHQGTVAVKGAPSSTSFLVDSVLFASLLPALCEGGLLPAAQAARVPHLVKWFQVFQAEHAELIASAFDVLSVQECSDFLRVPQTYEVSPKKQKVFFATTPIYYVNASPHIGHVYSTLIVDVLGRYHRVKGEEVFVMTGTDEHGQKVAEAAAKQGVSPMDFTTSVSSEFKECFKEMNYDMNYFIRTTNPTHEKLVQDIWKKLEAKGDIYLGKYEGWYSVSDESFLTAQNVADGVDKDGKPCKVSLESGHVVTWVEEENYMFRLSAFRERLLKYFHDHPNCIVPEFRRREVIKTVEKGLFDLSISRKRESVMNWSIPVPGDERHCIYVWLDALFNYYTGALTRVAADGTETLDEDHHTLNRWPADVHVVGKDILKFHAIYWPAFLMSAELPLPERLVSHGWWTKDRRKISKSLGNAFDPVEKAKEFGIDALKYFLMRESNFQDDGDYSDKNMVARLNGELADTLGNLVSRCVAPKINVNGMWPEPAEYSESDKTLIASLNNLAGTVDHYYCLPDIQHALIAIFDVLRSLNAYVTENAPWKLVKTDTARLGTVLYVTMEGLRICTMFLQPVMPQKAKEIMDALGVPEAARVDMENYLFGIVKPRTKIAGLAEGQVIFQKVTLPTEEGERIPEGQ

Results are percentages, as filed.
How 0% and 100% were set is not recorded. Most values in the screen are low, and negative values occur.
The compounds are a random part of those screened.
A dash means the value is not listed here; it may have been measured.

LdMetRS: 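Methionyl-tRNA synthetase (putative), Leishmania donovani (UniProt E9BF75). Primary screen of methionyl-tRNA synthetase; the read-out is not stated. The test concentration is not given. Values are per cent inhibition. Size under these conditions: about 68,000 compounds, about 24 of them at 50% or above in at least one test.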
Mtb heat-shock: 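Assay on Mycobacterium tuberculosis, filed only as a heat shock assay from Cornell; the read-out is not stated. The concentration is filed as 10 mM, unlikely as a test dose, so the dose is not known. Direction is inferred from retests: higher values go with stronger inhibition. About 69,000 compounds were tested under these conditions; 1.4% (about 930) showed 50% or more at least once.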

structure,LdMetRS,Mtb heat-shock
CN(C)CCOCc1nnc2n1CCN(CC1CC1)CC2.O=C(O)C(F)(F)F.O=C(O)C(F)(F)F,-,-19.96
CC(CCc1ccccc1)N1CCC(C(=O)Nc2cnccn2)CC1 (centres undefined),14.58,-9.192
Cc1nn(C)c2c(N3CCN(C)CC3)nc(C3CC3)nc12,-16.55,-6.761
O=C(O)c1cc(N2C[C@H](NC(=O)C3CCOCC3)[C@@H](C3CC3)C2)ccn1,4.963,-1.336
CN(Cc1ccc(-n2cccn2)cc1)Cc1ncc[nH]1,9.6,-8.082
O=C(O)C(F)(F)F.[H][C@]12CCC[C@@]1(COCc1ccccn1)CN(C(=O)c1ccc(F)cc1)C2,-,7.203
O=C(NC[C@]1(O)CCN(Cc2ccsc2)C[C@H]1O)c1c[nH]cn1,8.491,-17.86
O=C(O)C(F)(F)F.[H][C@@]12CCN(Cc3cccs3)C[C@]1(C(=O)N1CCCO1)CCO2,-,-21.11
CN(C)Cc1cnc(C2CN(C(=O)c3ccccc3Cl)CCO2)[nH]1 (centres undefined),12.38,-2.812
COC(=O)CCNC(=O)c1cc(Br)c2c(c1)OCCO2,16.42,-13.14
O=C(O)C(F)(F)F.[H][C@@]12OCCN(CC3CC3)[C@@]1([H])CC[C@H]2OC,-,-34.92
Cc1cnc(CN(C)C2CCN(Cc3nc4c(F)cccc4[nH]3)C2)o1 (centres undefined),8.108,29.17
CN(C)CC1(O)CCCN(C(=O)Cc2ccc(Cl)c(Cl)c2)C1 (centres undefined),3.911,-7.399
Cc1cc(CN2CC[C@H]3C[C@H](c4nc(C5CC5)cs4)O[C@@H]3C2)no1,22.86,-
O=C(O)C(F)(F)F.O=C(O)C(F)(F)F.[H][C@]12CCN(CC(=O)N(C)C)[C@@]1([H])CC[C@H](COCc1cccnc1)O2,-,0.6674
CN(C)C(C(=O)N1CCC(C#N)CC1)c1ccccc1F (centres undefined),16.85,-12.87
COc1ccc(CNCc2ccnc(N3CCCC3)c2)c(OC)c1,17.71,-
CCC(CNC(=O)Nc1cnn(CC)c1)N1CCc2ccccc2C1 (centres undefined),18.23,1.136
CCc1nc2n(n1)CC(NCc1noc(-c3ccccc3)n1)CC2 (centres undefined),5.512,-27.33
O=C(c1csc(-c2ccc(C(F)(F)F)cc2)n1)N1CCCNCC1,22.4,-9.777
Cn1cc(CN2CCCC23CCN(C(=O)c2ccsc2)CC3)cn1,-0.6536,-
CCOCC1c2c(ncn2C)CCN1C(=O)c1cscn1 (centres undefined),-2.933,57.96
Cn1ccc(NCc2cc3cc(F)ccc3o2)n1,19.35,-7.2
COc1cc(N2CC[C@H]3OCC[C@@]3(COc3nccc(C)n3)C2)ncn1,10.95,-
[H][C@@]12CN(C(=O)N(C)C)C[C@]1([H])C(=O)N(Cc1cccc(F)c1)C2,-,-0.944
COc1nn(C)cc1C(=O)N1CCC(c2nnc(-c3ccsc3)o2)CC1,8.168,-3.263
Fc1cc(Oc2ccc(C(F)(F)F)cn2)cc(F)c1CN1CCCC1,14.78,-23.28
Cc1cccc(C2CCCN(C(=O)CN3CCC(C(N)=O)CC3)C2)c1 (centres undefined),18.82,-1.872
O=C(CCc1ccsc1)N1CCC(N2CCNC2=O)CC1,16.57,1.264
CCNC(=O)NC(=O)CNc1cc(C#N)ccc1OCC,22.78,-6.338
CCC1c2ccsc2CCN1C(=O)NCc1ccccn1 (centres undefined),14.72,15.52
CC(=O)N1CCCN(CCn2nc3ccccn3c2=O)CC1,11.66,-8.113
COC(=O)c1cccn1C1CCN(C(=O)c2c(C)noc2C)CC1,1.425,-20.79
Cc1n[nH]c(C2CN(Cc3ncc(C(C)C)o3)CCO2)n1 (centres undefined),17.87,-5.98
Cn1nc(CN2CCCCC2)c2c1CN(C(=O)c1cccc(Cl)c1)C2,1.25,-29.25
Cc1c(NC(=O)CN2CCC(Oc3cnccn3)CC2)cnn1C,10.5,9.29
Cc1nn(C)c(C)c1NC(=O)CNC(c1ccccc1)C1CCC1 (centres undefined),2.557,6.876
CC1CN(C)CCN1C(=O)c1cnc2c(cnn2C2CCCC2)c1 (centres undefined),18.89,-19.82
O=C(O)c1cc(C2=CCCCC2)cc(S(=O)(=O)NCc2ccccn2)c1,17.71,1.175
O=C(NCCCn1cccn1)C1(c2ccc(Br)cc2)CC1,11.33,15.66
COCC1CN(C(=O)c2ccco2)Cc2cn(C)nc21 (centres undefined),3.546,-
Cc1ccc(CNC[C@H]2Cn3cc(-c4ccccc4)nc3CO2)cc1,15.25,-5.342
[H][C@]12CCN[C@@]1([H])CN(C(=O)CCC(C)C)C2,-,14.59
Cc1cc(CN(C)CC2CCCN(CCc3ccc(Cl)cc3)C2)[nH]n1 (centres undefined),10.06,-1.961
Cc1nccc(C(=O)NC(CN2CCCC2=O)c2ccccc2)n1 (centres undefined),18.03,-53.89
Cn1ncnc1-c1ccnc(NCCCc2ccncc2)n1,5.498,-6.276
COc1ccc2oc(-c3cn(C)nc3C)c(O)c(=O)c2c1,4.7,-18.3
COc1cc(OC)c(C2SCC(=O)Nc3n[nH]cc32)cc1OC (centres undefined),18.31,10.58
CN1CCN(c2cc(NC(=O)c3cnccn3)ncn2)CC1,11.51,2.104
COCCCn1cnnc1CNC(=O)c1[nH]c2c(C)cc(C)cc2c1C,9.924,-6.936
Cc1ccnn1CC(=O)N1CCN(C2CCc3ccccc3C2)CC1 (centres undefined),-4.467,-28.61
CN(C)C(=O)COC[C@@]12CCC[C@@H]1CN(C1CCC1)C2,9.42,-
O=C(c1cc(=O)n(-c2ccccc2)[nH]1)N1CCOC(C(F)(F)F)C1 (centres undefined),0.625,-14.35
Cc1ccc(CC(=O)N2CCN(C3CCOC3=O)CC2)cc1 (centres undefined),14.42,-0.8121
Cc1nnc(N2CCc3cnc(C(C)C)nc3C2)c(C#N)c1C,11.58,-1.207
Cc1nc(CN(CCS(C)(=O)=O)C(C)(C)C)no1,-0.2985,-9.707
Cc1ncc(CNC(=O)CCc2cccc(F)c2)c(C2CCCN2C)n1 (centres undefined),9.247,-1.084
CCOc1ccc(C(=O)Nc2ccn(CC)n2)cc1,11.05,-21.13
COc1cccc2c1ccn2CCC(=O)N1CCC(C(=O)O)CC1,16.91,20.66
CCC(C)C(=O)NCCCn1nc(C)cc1C (centres undefined),-7.726,5.865
CCn1c(N)nc2cc(C(=O)NCCNc3ncccc3C)cnc21,16.86,-3.204
CC(C)N1CCC(c2cnc(-c3cncnc3)cn2)CC1,0.9375,-17.27
CC(C)C(=O)NCC(=O)N1CCC2(CC1)c1ccccc1[C@@H](N)[C@@H]2O,4.878,3.841
CC(C)N1CCC(N2CCN(C3CCCCC3)CC2CCO)CC1 (centres undefined),13.31,-41.35
CN1CCN(Cc2cn3c(n2)CN(C(=O)c2ccccn2)CC3)CC1,15.31,-
CCc1nn(-c2cc(Oc3cc(C)ccc3C)ncn2)c(N)c1C#N,10,3.173
CC(=O)N1CCc2nc(C3CCN(c4ncccn4)C3)ncc2C1 (centres undefined),8.36,-4.025
Cc1csc(C(=O)NCCn2nc(-n3cncn3)ccc2=O)c1,18.16,1.784
COCCC(C)NC(=O)N1CCC(n2ccc(C(F)(F)F)n2)CC1 (centres undefined),19.16,27.34
O=C(O)C(F)(F)F.c1csc(CN2Cc3nccn3CC(Cn3cncn3)C2)n1 (centres undefined),-,-41.84
CN1CC(=O)N(c2ccsc2)CC12CCN(S(=O)(=O)C1CC1)C2.O=C(O)C(F)(F)F (centres undefined),-,-31.64
CCCN1CCC(CC(=O)N(C)CC(=O)c2ccc(O)cc2)CC1,16.77,-12.36
CCCN1CCc2c(C(=O)N(C)Cc3ccccn3)nn(C)c2C1,15.22,-
Cc1nc(CN2CCCC2Cn2cccn2)nc2ccccc12 (centres undefined),11.15,33.45

Some entries from above, unchanged:

* CN(Cc1ccc(-n2cccn2)cc1)Cc1ncc[nH]1 : LdMetRS: 9.6%; Mtb heat-shock: -8.082%
* CCc1nn(-c2cc(Oc3cc(C)ccc3C)ncn2)c(N)c1C#N : LdMetRS: 10%; Mtb heat-shock: 3.173%
* CCC(C)C(=O)NCCCn1nc(C)cc1C (centres undefined) : LdMetRS: -7.726%; Mtb heat-shock: 5.865%
* Cc1nc(CN2CCCC2Cn2cccn2)nc2ccccc12 (centres undefined) : LdMetRS: 11.15%; Mtb heat-shock: 33.45%
* Cc1nn(C)c2c(N3CCN(C)CC3)nc(C3CC3)nc12 : LdMetRS: -16.55%; Mtb heat-shock: -6.761%
* Cn1cc(CN2CCCC23CCN(C(=O)c2ccsc2)CC3)cn1 : LdMetRS: -0.6536%